PubChem BioAssay AID652272 | Drosophila RNAi Screening Center, 2013

- Purpose: 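Genes whose knock-down decreases or increases Hedgehog reporter output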 (primary screen)
- Cells: Drosophila clone 8 (Cl8) cells
- Reagent: long dsRNA against Drosophila genes
- Measurement: 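Firefly light from a Hedgehog-responsive ptc promoter reporter and Renilla reference light, both read on a plate reader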
- Scale: firefly Hh reporter signal: higher = more ptc reporter light; Renilla reference signal: higher = more Renilla control light
- Hit rule: 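Hit when the z-score averaged over two replicates is under -2 or over +3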
- Meaning of the calls: active = hit: reporter lowered or raised; inactive = not a hit
In all, the deposit lists about 21,000 reagents; below is an unselected part of those with a known target gene and a result. Of all reagents, 503 (2.4%) got an active call. 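Raw plate light values, not normalised; calls rest on replicate z-scores that were not deposited; hits include reporter decreases as well as increases.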 Entries without a mark were called inactive. The numbers tell different reagents against one gene apart. A plus sign joins genes that one reagent is predicted to hit. Reagent sequences are not shown. Not stated in the record: the amount of reagent, the time to read-out.

no.	gene	dsRNA no.	firefly Hh reporter signal, replicate 1	firefly Hh reporter signal, replicate 2	Renilla reference signal, replicate 1	Renilla reference signal, replicate 2
1	asRNA:CR43159 + yellow-k	1	1.67e5		6391	4650
2	CG32053	1	81347	74641	3904	2897
3	Mis12	1	30298	42002	2609	2976
4	Fmo-1 (Flavin-containing monooxygenase 1)	1	1.59e5	95824	6032	4141
5	RpL35 (Ribosomal protein L35)	1	27781 (active)	59185	2147	6176
6	CG9072	1	78976	2.31e5	2956	9144
7	Wnt5 (Wnt oncogene analog 5)	1	68658	2.21e5	2361	8720
8	sty (sprouty)	1	1.34e5	64980	4356	5882

A run of entries from the list above, as a working copy:
no.	gene	dsRNA no.	firefly Hh reporter signal, replicate 1	firefly Hh reporter signal, replicate 2	Renilla reference signal, replicate 1	Renilla reference signal, replicate 2
6	CG9072	1	78976	2.31e5	2956	9144
7	Wnt5 (Wnt oncogene analog 5)	1	68658	2.21e5	2361	8720

Continued:
no.	gene	dsRNA no.	firefly Hh reporter signal, replicate 1	firefly Hh reporter signal, replicate 2	Renilla reference signal, replicate 1	Renilla reference signal, replicate 2
9	Eogt (EGF-domain O-GlcNAc transferase)	1	1.44e5	95856	5621	4416
10	sick (sickie)	1	56986	51533	1506	4987
11	sick (sickie)	2	61867	64544	1714	5498
12	sick (sickie)	3	65255	53536	1789	5200
13	sick (sickie)	4	72954	41297	2085	3560
14	sick (sickie)	5	76834	84194	1340	4157
15	sick (sickie)	6	77986	54921	1040	4461
16	Vha100-4 (Vacuolar H[+] ATPase 100kD subunit 4)	1	5.94e5	1.02e5	29483	2540
17	CG11986	1	1.07e5	82232	4114	3442
18	CG1701	1	63227	49021	1704	3945
19	GC2	1	92657	90258	3553	1642
20	CG9702	1	1.12e5	1.39e5	3557	3851
21	CG9920	1	84697	88944	2064	2080
22	CG46298	1	1.13e5	42259	2436	4033
23	Synj (Synaptojanin)	1	81672	72800	3281	2886
